# Measurements reported in patent US9290528B1, “Light-activated compounds” (University of Kentucky Research Foundation, priority 2013, dated 2016).
# How the values were obtained:
# [1] = test system: A549 cells; assay: Uptake and subcellular localization by Apoptome microscopy; assay type: cell-based, human
# Experimental: The emission of 9 and 10 was measured in A549 cells using an Apoptome microscope. The relative rates of uptake of each of the complexes were analyzed as a function of time, and both 9 and 10 were visible inside cells as early as 2 hours after compound addition, consistent with the flow data and the ICP-OES results. Images were taken at 2, 8, 18 and 24 hours, and intracellular levels of both complexes appeared to plateau around 8 hours.
# Differences in the intracellular localization of 9 and 10 were evaluated by determining colocalization of luminescence of the compound and fluorescent markers of organelles in A549 cells. Overlap in signals between the compounds, cellular nucleus, mitochondria and lysosome was measured over a 24 hour period.
# [2] = Singlet oxygen quantum yield; assay type: physicochemical
Compound,subcellular localization ([1]; absence of light),subcellular localization ([1]; after irradiation),ΦΔ (quantum yield for 1O2 production) [2]
"O=S(=O)([O-])c1ccc(-c2ccnc3c2ccc2c(-c4ccc(S(=O)(=O)[O-])cc4)ccnc23)cc1.O=S(=O)([O-])c1ccc(-c2ccnc3c2ccc2c(-c4ccc(S(=O)(=O)[O-])cc4)ccnc23)cc1.O=S(=O)([O-])c1ccc(-c2ccnc3c2ccc2c(-c4ccc(S(=O)(=O)[O-])cc4)ccnc23)cc1.[Ru+2] [Compound 10, Ru(bathophenanthorlinedisulfonate)3]",remained primarily in the cytosol,primarily observed in lysosomes,–
Ru(bathophenanthroline)3 [Compound 9],localized to lysosomes and the mitochondria,induced nuclear localization of the mitochondrial and lysosome markers,0.42
